These are yes or no findings as the source states them, for the method shown. Some results given as binding are weak or reduced against the parent protein; the word gives no strength.

The chains behind the UniProt entries cited, without tags or fusion partners.
UniProt P46633: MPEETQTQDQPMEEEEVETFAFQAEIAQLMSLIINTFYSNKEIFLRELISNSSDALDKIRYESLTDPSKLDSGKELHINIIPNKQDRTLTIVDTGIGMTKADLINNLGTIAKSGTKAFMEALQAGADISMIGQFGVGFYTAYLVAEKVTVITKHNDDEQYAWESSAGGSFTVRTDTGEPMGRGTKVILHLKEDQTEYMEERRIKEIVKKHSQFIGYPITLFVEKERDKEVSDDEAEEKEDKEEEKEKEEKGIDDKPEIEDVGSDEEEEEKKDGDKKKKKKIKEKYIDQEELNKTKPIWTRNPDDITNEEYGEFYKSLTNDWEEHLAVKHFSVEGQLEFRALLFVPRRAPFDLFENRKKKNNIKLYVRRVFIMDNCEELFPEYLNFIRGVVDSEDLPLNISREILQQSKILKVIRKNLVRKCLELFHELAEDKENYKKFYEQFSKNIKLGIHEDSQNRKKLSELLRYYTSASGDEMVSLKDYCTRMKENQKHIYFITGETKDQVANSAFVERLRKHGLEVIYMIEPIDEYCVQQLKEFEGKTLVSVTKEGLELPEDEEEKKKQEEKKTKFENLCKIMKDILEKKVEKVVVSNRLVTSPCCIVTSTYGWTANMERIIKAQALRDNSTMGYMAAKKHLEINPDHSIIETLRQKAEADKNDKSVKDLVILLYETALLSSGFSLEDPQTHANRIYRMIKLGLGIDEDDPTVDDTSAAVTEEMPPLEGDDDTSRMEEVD

The target in test [1] is HSP90 endogenous to CHO cells (Hamster) (UniProt P46633). In words: mutant expressed in CHO cells; HSP90 immunoprecipitation, immunoblot for EGFR.
The target is the same in test [2]. Briefly: HSP90 immunoprecipitation from transfected CHO cells, legend of FIG. 1c.
The target is the same in test [3]. Briefly: full length EGFR expressed in ErbB2-negative CHO cells; HSP90 immunoprecipitation, immunoblot for EGFR.

As to “S768I-EGFR (from UniProt P00533 25-1210) (receptor)”, the binding result in test [1] is recorded as “binds”.

In the case of “S768A-EGFR (from UniProt P00533 25-1210) (receptor)”, the binding result in test [1] is “binds”.

As to “DN770-771AA EGFR (from UniProt P00533 25-1210) (receptor)”, in test [1], the binding entry is “binds”.

“D770G-EGFR (from UniProt P00533 25-1210) (receptor)”: the binding entry in test [1] is given as “binds”.

Regarding “WT-EGFR construct (full length EGFR) expressed in CHO cells (from UniProt P00533 25-1210) (receptor)”, the binding result in test [2] and in test [3] was “binds” throughout.

For “P772G-EGFR (from UniProt P00533 25-1210) (receptor)”, the binding result in test [1] is listed as “binds”.

For “S768D-EGFR (from UniProt P00533 25-1210) (receptor)”, in test [1], the binding entry is recorded as “binds”.

For the origin of these results see patent US20150218277A1.
